Measurements from article PMC11027350.
These are yes or no findings as the source states them, for the method shown. For part of these data: Binding seen in cells or lysates may run through a third protein. Some results given as binding are weak or reduced against the parent protein; the word gives no strength.

Amino acid sequences for entries named in this document (tags omitted).
UniProt P08047: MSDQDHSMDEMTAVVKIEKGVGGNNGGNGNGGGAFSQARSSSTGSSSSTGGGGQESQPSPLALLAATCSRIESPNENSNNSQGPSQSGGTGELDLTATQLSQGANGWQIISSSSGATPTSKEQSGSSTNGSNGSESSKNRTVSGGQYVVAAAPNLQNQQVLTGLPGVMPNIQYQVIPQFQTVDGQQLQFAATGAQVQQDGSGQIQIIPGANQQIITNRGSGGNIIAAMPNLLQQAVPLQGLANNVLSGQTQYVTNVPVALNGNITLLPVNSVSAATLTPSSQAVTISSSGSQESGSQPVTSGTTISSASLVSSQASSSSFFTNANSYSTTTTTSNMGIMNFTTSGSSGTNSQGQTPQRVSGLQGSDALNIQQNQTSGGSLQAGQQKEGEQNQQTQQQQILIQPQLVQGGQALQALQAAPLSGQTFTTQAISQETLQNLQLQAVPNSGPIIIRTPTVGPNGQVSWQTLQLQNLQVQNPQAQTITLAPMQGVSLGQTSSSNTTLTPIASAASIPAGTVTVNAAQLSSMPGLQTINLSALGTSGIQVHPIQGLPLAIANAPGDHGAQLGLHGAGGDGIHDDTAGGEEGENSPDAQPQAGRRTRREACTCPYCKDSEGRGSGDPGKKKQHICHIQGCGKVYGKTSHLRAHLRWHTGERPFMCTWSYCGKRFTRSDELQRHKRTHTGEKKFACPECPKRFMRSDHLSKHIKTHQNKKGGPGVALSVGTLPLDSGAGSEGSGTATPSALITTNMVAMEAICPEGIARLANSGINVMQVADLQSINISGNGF
UniProt Q92831: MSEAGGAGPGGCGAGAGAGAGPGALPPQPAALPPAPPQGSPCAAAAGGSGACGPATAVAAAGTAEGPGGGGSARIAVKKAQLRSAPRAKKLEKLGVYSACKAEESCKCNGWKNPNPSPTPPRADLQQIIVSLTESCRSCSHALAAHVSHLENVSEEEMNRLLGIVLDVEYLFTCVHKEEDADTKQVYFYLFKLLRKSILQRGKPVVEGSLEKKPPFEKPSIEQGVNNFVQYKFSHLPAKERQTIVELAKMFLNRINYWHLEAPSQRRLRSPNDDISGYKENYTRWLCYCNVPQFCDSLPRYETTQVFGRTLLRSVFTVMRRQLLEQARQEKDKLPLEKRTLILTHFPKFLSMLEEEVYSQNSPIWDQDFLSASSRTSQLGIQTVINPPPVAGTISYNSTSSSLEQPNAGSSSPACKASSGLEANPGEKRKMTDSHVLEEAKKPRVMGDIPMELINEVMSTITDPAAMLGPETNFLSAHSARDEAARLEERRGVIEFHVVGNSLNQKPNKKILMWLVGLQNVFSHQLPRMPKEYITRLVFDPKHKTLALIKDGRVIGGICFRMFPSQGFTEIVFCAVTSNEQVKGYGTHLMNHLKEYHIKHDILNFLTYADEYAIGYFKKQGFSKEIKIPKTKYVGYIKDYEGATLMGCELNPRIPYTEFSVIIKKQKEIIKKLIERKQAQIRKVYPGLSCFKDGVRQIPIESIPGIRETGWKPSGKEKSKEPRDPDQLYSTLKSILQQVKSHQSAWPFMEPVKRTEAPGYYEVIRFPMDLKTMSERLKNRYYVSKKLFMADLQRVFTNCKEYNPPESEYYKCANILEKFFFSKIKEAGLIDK

Key:
[1] = biological target: recombinant glutathione S-transferase (GST)-SP1 fusion protein (UniProt P08047); assay: pull-down; GST-SP1 or GST held on Glutathione Agarose (Pierce GST Protein Interaction Pull-Down Kit), incubated with FLAG-tagged KAT2B recombinant protein at 4 °C for 2 h; eight washes with 1:1 TBS: Pull-Down Lysis Buffer; Western blotting; both purified
[2] = biological target: transcription factor SP1 (Specificity Protein 1) (human (endogenous in human CCA cell lines)) (UniProt P08047); assay: co-IP; CCA cell lysate (Pierce IP Lysis Buffer) immunoprecipitated with anti-SP1 or anti-YY1 antibody overnight at 4 °C, Protein A/G magnetic beads; washed with 50 mmol/L Tris-HCl pH 7.6, 150 mmol/L NaCl, 1 mmol/L EDTA, 0.1% NP-40; Western blotting for KAT2B; IgG as negative control
[3] = biological target: histone lysine acetyltransferase KAT2B (Lysine acetyltransferase 2B) (human (in human CCA cell lines)) (UniProt Q92831); assay: co-IP; CCA cell lysate (Pierce IP Lysis Buffer) immunoprecipitated with anti-KAT2B antibody overnight at 4 °C, Protein A/G magnetic beads; washed with 50 mmol/L Tris-HCl pH 7.6, 150 mmol/L NaCl, 1 mmol/L EDTA, 0.1% NP-40; Western blotting; IgG as negative control

**Q.** “Recombinant KAT2B-Flag protein (from UniProt Q92831 1-832)” was tested. Which binding [1] did it give?
**A.** The binding was “binds”.

**Q.** Which binding [2] does the source give for “histone lysine acetyltransferase KAT2B (Lysine acetyltransferase 2B) (from UniProt Q92831 1-832)” here?
**A.** Its binding is “binds”.

**Q.** Which binding [3] does the source give for “transcription factor SP1 (Specificity Protein 1) (from UniProt P08047 1-785)” here?
**A.** The binding was “binds”.
